Tested on: FZD6 receptor complex in living HEK293 cells
Assay: FCS translational diffusion time of FZD6-GFP constructs
Format: cell-based, human
Details: C59 5 µM overnight, N = 17 (wt), 14 (dimer mutant) cells

Molecule	transit (translational diffusion) time τ D
FZD6 dimer mutant: D365A, R368A, Y369A triple mutant of FZD6 (protein, left off: GFP, C-terminal, kept) HSLFTCEPITVPRCMKMAYNMTFFPNLMGHYDQSIAAVEMEHFLPLANLECSPNIETFLCKAFVPTCIEQIHVVPPCRKLCEKVYSDCKKLIDTFGIRWPEELECDRLQYCDETVPVTFDPHTEFLGPQKKTEQVQRDIGFWCPRHLKTSGGQGYKFLGIDQCAPPCPNMYFKSDELEFAKSFIGTVSIFCLCATLFTFLTFLIDVRRFRYPERPIIYYSVCYSIVSLMYFIGFLLGDSTACNKADEKLELGDTVVLGSQNKACTVLFMLLYFFTMAGTVWWVILTITWFLAAGRKWSCEAIEQKAVWFHAVAWGTPGFLTVMLLAMNKVEGDNISGVCFVGLYDLAASAAFVLLPLCLCVFVGLSLLLAGIISLNHVRQVIQHDGRNQEKLKKFMIRIGVFSGLYLVPLVTLLGCYVYEQVNRITWEITWVSDHCRQYHIPCPYQAKAKARPELALFMIKYLMTLIVGISAVFWVGSKKTCTEWAGFFKRNRKRDPISESRRVLQESCEFFLKHNSKVKHKKKHYKPSSHKLKVISKSMGTSTGATANHGTSAVAITSHDYLGQETLTEIQTSPETSMREVKADGASTPRLREQDCGEPASPAASISRLSGEQVDGKGQAGSVSESARSEGRISPKSDITDTGLAQSNNLQVPSSSEPSSLKGSTSLLVHPVSGVRKEQGGGCHSDT	30.1 ± 2.0 ms
FZD6-GFP: GFP-tagged human FZD6 receptor construct (protein, left off: V5 (on the crosslinked copy), N-terminal, kept | mCherry (on the crosslinked copy), C-terminal, kept | GFP (on the other, mobile copy), C-terminal, kept, GFP-tagged human FZD6 receptor construct) HSLFTCEPITVPRCMKMAYNMTFFPNLMGHYDQSIAAVEMEHFLPLANLECSPNIETFLCKAFVPTCIEQIHVVPPCRKLCEKVYSDCKKLIDTFGIRWPEELECDRLQYCDETVPVTFDPHTEFLGPQKKTEQVQRDIGFWCPRHLKTSGGQGYKFLGIDQCAPPCPNMYFKSDELEFAKSFIGTVSIFCLCATLFTFLTFLIDVRRFRYPERPIIYYSVCYSIVSLMYFIGFLLGDSTACNKADEKLELGDTVVLGSQNKACTVLFMLLYFFTMAGTVWWVILTITWFLAAGRKWSCEAIEQKAVWFHAVAWGTPGFLTVMLLAMNKVEGDNISGVCFVGLYDLDASRYFVLLPLCLCVFVGLSLLLAGIISLNHVRQVIQHDGRNQEKLKKFMIRIGVFSGLYLVPLVTLLGCYVYEQVNRITWEITWVSDHCRQYHIPCPYQAKAKARPELALFMIKYLMTLIVGISAVFWVGSKKTCTEWAGFFKRNRKRDPISESRRVLQESCEFFLKHNSKVKHKKKHYKPSSHKLKVISKSMGTSTGATANHGTSAVAITSHDYLGQETLTEIQTSPETSMREVKADGASTPRLREQDCGEPASPAASISRLSGEQVDGKGQAGSVSESARSEGRISPKSDITDTGLAQSNNLQVPSSSEPSSLKGSTSLLVHPVSGVRKEQGGGCHSDT	52.4 ± 4.1 ms

Reference: publication PMC5548745, “Agonist-induced dimer dissociation as a macromolecular step in G protein-coupled receptor signaling” (Nature Communications, 2017)
